Chains of the proteins cited; added tags and fusions are not shown. Lines headed by an entry give the natural chain unless they say otherwise; changes in a name come on top.
UniProt G3J3J5: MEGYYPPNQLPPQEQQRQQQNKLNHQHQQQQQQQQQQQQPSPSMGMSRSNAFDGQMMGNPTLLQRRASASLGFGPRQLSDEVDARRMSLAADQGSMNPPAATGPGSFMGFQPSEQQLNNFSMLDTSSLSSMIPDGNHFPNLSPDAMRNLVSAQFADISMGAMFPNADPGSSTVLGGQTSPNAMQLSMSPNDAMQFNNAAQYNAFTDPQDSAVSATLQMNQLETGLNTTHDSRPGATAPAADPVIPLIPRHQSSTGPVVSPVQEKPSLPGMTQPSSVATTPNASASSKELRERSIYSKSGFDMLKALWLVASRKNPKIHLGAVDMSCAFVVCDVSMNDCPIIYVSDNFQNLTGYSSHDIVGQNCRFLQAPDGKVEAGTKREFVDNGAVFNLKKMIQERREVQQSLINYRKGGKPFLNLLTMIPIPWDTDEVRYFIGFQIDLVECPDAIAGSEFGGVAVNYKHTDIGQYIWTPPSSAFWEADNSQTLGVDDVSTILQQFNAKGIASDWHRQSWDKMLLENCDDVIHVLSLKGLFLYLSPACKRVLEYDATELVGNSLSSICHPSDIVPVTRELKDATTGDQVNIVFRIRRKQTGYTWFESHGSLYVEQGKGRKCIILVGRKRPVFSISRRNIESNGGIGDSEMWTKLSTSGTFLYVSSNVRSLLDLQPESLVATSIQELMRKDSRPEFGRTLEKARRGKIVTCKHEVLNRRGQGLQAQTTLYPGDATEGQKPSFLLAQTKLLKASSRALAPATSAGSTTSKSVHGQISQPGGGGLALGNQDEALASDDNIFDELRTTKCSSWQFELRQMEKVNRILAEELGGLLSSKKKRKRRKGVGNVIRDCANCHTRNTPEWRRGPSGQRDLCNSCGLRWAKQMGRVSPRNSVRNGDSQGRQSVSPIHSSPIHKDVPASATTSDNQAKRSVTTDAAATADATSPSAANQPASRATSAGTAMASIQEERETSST
UniProt G3JFF2: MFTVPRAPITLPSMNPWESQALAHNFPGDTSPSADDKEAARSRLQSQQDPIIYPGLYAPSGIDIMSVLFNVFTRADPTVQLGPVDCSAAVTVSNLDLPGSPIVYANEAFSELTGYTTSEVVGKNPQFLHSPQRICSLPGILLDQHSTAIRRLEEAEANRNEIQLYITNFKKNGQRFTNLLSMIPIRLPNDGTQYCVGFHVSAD
UniProt G3J745: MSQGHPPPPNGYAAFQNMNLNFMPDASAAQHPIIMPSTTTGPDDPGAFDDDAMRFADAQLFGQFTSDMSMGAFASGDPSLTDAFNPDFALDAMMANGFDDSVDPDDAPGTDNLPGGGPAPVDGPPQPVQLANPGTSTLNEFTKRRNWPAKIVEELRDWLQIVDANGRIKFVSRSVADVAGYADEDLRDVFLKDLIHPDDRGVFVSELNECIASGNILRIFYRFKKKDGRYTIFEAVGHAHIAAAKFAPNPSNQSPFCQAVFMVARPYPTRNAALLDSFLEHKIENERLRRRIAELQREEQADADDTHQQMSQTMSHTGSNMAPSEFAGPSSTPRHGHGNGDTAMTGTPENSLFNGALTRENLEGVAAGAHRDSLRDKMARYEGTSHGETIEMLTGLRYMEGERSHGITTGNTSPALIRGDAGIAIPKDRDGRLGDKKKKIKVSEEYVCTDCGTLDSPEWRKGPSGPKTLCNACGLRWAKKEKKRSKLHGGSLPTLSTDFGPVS
UniProt G3J672: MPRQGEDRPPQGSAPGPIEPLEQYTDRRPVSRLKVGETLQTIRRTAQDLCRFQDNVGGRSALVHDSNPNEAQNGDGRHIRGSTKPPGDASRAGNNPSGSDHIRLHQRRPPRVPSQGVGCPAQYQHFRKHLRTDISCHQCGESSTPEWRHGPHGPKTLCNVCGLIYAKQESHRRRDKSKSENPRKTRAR

In PMC10126257, “Genome resequencing and transcriptome analysis reveal the molecular mechanism of albinism in Cordyceps militaris”:

What was measured:
[1] = target: CmWC-1-His (Cordyceps militaris) (UniProt G3J3J5); assay: pull-down; CmWC-1-His or CmVVD-His held on His-megbeads, mixed with CmWC-2-GST, CmWC-3-GST or GST, 4°C for 1 h; washed with 50 mM Tris, 300 mM NaCl, 20 mM imidazole; eluted with 250 mM imidazole; eluent and bead residues read by western blot; both purified
[2] = target: CmVVD-His (Cordyceps militaris) (UniProt G3JFF2); assay: as above

binding [1]	binding [2]	Substance
binds	binds	CmWC-2-GST (from UniProt G3J745)
binds	binds	CmWC-3-GST (from UniProt G3J672)

No constants are given. Whether binding was seen depends on the method and setting. A result given as binding can be weak or reduced; the word gives no strength.
